In PMC7395175:
Results are given in words; binding and its absence hold for the method and conditions named. In cells and extracts the contact can be indirect.

By UniProt entry, the sequences of proteins in these tests, tags left out. Residues count along the entry.
UniProt O08589, residues 21-92: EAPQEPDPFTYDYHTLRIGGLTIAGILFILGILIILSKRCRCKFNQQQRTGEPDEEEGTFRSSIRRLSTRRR

Molecular target: T1, Na-pump binding site peptide (NBSP), biotinylated zDHHC5 peptide αα 233–257 (rat)
T1 sequence (peptide, N terminal biotin): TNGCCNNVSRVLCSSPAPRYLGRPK
Test: pull-down; biotinylated NBSP added to whole rat heart homogenate lysed with FC-12, captured with streptavidin sepharose beads, Western blot; only the target purified

binding: no binding
Substance: phospholemman (PLM), endogenous, rat heart (from UniProt O08589 21-92)
